Measured values from PubChem BioAssay AID540256 (National Center for Advancing Translational Sciences (NCATS), 2011).
The campaign covered roughly 300,000 compounds. About 3,700 (1.2%) were called active. The inconclusive results got no clear call from the source; some entries with a clear call stand among them for comparison. Calls come from the whole dose curve; tested in HEK293 cells. Potencies of inconclusive entries are doubtful fits and often do not repeat.

assay: qHTS for Inhibitors of binding or entry into cells for Lassa Virus; details: Lassa virus pseudotype entry inhibition, cell reporter; series mostly up to 37.9 µM; note: nearly all actives have a fitted effect of over 50% in size
Potency is the fitted concentration of half-maximal effect.

With `COc1ccc(CCn2c(N)c(C(=O)NCc3ccco3)c3nc4ccccc4nc32)cc1OC` as the molecule, how does the Potency read?
Its Potency is inconclusive: 29.1 µM [inhibitor, single point].

Which Potency does the source give for `COc1ccc(/C=N/NC(=O)CCCOc2ccc(Cl)cc2Cl)cc1[N+](=O)[O-]` here?
Its Potency is inconclusive: 15.8 µM [inhibitor, partial curve, poor fit].

With `O=C(c1ccc(COc2ccc(F)cc2)o1)n1cc(Br)cn1` as the molecule, how does the Potency read?
The Potency was “inactive”.

With `OC(COCc1ccccc1)Cn1cnc2ccccc21` (stereo unspecified) as the molecule, how does the Potency read?
Its Potency is “inactive”.

Which Potency does the source give for `O=C(OCn1ncc(Cl)c(Cl)c1=O)c1cccc(C(F)(F)F)c1` here?
Its Potency is inconclusive: 29.1 µM [inhibitor, single point].

Which Potency does the source give for `COc1ccc(CC(=O)OCC(=O)NCc2ccc(C)cc2)cc1OC` here?
Its Potency is “inactive”.

With `Cc1ccc(C(=O)c2ccccc2C(=O)OCC(=O)NCCc2ccccc2)cc1` as the molecule, how does the Potency read?
Its Potency is “inactive”.

With `CCOc1ccc(-n2c(-c3ccc(Br)cc3)c[n+]3c2CCCCC3)cc1` as the molecule, how does the Potency read?
The Potency was inconclusive: 17.8 µM [inhibitor, single point].

With `CCC(C)NC(=O)c1cc(-c2ccc3c(c2)OCO3)on1` (stereo unspecified) as the molecule, how does the Potency read?
Its Potency is inconclusive: 7.08 µM [inhibitor, full curve, poor fit].

For `CCOc1ccc(C(=O)Nc2cc(OC)ccc2OC)cc1`, which Potency is on record?
The Potency was “inactive”.

With `Cc1ccc(CNC(=O)c2ccc3c(O)c(S(=O)(=O)c4ccc(Cl)cc4)c(=O)[nH]c3c2)cc1` as the molecule, how does the Potency read?
Its Potency is “inactive”.

Which Potency does the source give for `Cc1ccc(NC(=O)c2ccc(S(=O)(=O)N3CCOCC3)cc2)cc1` here?
Its Potency is inconclusive: 15.8 µM [inhibitor, partial curve, poor fit].

For `O=C(c1ccc(Cl)c(S(=O)(=O)N2CCCCCC2)c1)N1CCN(c2ccccn2)CC1`, which Potency is on record?
Its Potency is inconclusive: 29.1 µM [inhibitor, single point].

For `c1ccc2[nH]c(CSc3nc4ccccc4o3)nc2c1`, which Potency is on record?
The Potency was “inactive”.

With `Cc1ccc(CN2CCCn3nc(C(=O)NCCc4ccccc4Cl)cc3C2=O)cc1` as the molecule, how does the Potency read?
The Potency was inconclusive: 35.5 µM [inhibitor, partial curve, poor fit].

Which Potency does the source give for `Cc1nn(C)c2c1c(-c1ccccc1)cc(=O)n2CC(=O)NC(C)C` here?
The Potency was inconclusive: 6.31 µM [inhibitor, full curve, poor fit].

With `Cc1ccc(/C=N/NC(=O)CSCc2ccc(Cl)cc2)cc1` as the molecule, how does the Potency read?
Its Potency is inconclusive: 29.1 µM [inhibitor, single point].

With `O=C1CC(c2ccccc2)n2nc(NS(=O)(=O)c3ccccc3)nc2N1` (stereo unspecified) as the molecule, how does the Potency read?
The Potency was “inactive”.

Which Potency does the source give for `CC1(C)Cc2nc3oc4c(N(CCO)Cc5ccccc5)ncnc4c3cc2CO1` here?
The Potency was inconclusive: 8.2 µM [inhibitor, partial curve].

Which Potency does the source give for `CN1CCN(CCCNc2nc3ccc(Oc4ccc(NC(=O)Nc5cc(C(F)(F)F)ccc5F)cc4)cc3[nH]2)CC1` here?
The Potency was inconclusive: 4.45 µM [activator, full curve, poor fit].

For `NC(=O)C1CCN(S(=O)(=O)c2ccc(N3CCCCS3(=O)=O)cc2)CC1`, which Potency is on record?
Its Potency is inconclusive: 1.78 µM [inhibitor, partial curve, poor fit].

Which Potency does the source give for `COc1cc(/C=c2\s/c(=C\C(=O)C(C)(C)C)[nH]c2=O)cc(OC)c1OC` here?
The Potency was inconclusive: 29.1 µM [inhibitor, single point].

With `O=C(COc1ccccc1)Nc1ccc2c(c1)nc1n2CCSC1` as the molecule, how does the Potency read?
Its Potency is “inactive”.

Which Potency does the source give for `O=C(Cn1nnc2c(cnn2-c2ccc(F)cc2)c1=O)OC1CCCCC1` here?
The Potency was “inactive”.

For `N#Cc1c(NC(=O)C2CCCO2)sc2c1CCCCCC2` (stereo unspecified), which Potency is on record?
Its Potency is “inactive”.

Which Potency does the source give for `N#Cc1ccc(C(=O)Nc2cc(S(=O)(=O)Nc3ccc(Cl)cc3)ccc2N2CCCCC2)cc1` here?
The Potency was inconclusive: 35.5 µM [inhibitor, single point].

For `O=C(NCc1ccccc1)C1CCC(CNc2c(N3CCCCC3)c(=O)c2=O)CC1` (stereo unspecified), which Potency is on record?
Its Potency is “inactive”.

For `CCc1nc(SC)ncc1C(=O)N1CCN(c2cc(C)ccc2C)CC1`, which Potency is on record?
The Potency was “inactive”.

With `COc1ccc(/C=N/NC(=O)c2cc(-c3ccccc3OC)nc3ccccc23)cc1COC(C)=O` as the molecule, how does the Potency read?
The Potency was inconclusive: 17.8 µM [inhibitor, single point].

With `COc1ccccc1CC(=O)N(Cc1ccccc1)c1cccc(C)c1` as the molecule, how does the Potency read?
The Potency was inconclusive: 35.5 µM [inhibitor, single point].

With `COc1ccc(Cl)cc1NC(=O)CN1CCN(S(=O)(=O)N2CCC(C)CC2)CC1` as the molecule, how does the Potency read?
The Potency was inconclusive: 10 µM [inhibitor, partial curve, poor fit].

With `CC(NC(=O)c1ccc2c(c1)sc1nc(-c3ccccc3)cn12)C12CC3CC(CC(C3)C1)C2` (stereo unspecified) as the molecule, how does the Potency read?
Its Potency is “inactive”.

Which Potency does the source give for `CCOC(=O)c1[nH]c(C)c(C(=O)NC2CCCCCC2)c1C` here?
The Potency was “inactive”.

With `CC(C)(C)C(=O)Nc1cc(S(=O)(=O)N2CCCCC2)ccc1N1CCCCC1` as the molecule, how does the Potency read?
The Potency was inconclusive: 35.5 µM [inhibitor, single point].

With `Cn1c(=O)c(=O)n(C)c2cc(S(=O)(=O)N3CCN(c4ccccc4)CC3)ccc21` as the molecule, how does the Potency read?
The Potency was “inactive”.

With `Cc1cccc(C(=O)Oc2c(Sc3ccccc3)c(C)nn2C(C)(C)C)c1` as the molecule, how does the Potency read?
The Potency was inconclusive: 35.5 µM [inhibitor, single point].

Which Potency does the source give for `N#Cc1ccccc1NC(=S)NC(=O)C1CCC1` here?
The Potency was “inactive”.

For `O=C(Nc1ccc2nc(-c3ccccc3)[nH]c2c1)c1ccco1`, which Potency is on record?
Its Potency is inconclusive: 0.112 µM [activator, full curve, poor fit].

Which Potency does the source give for `CC(C(=O)Nc1ccc([N+](=O)[O-])cc1Cl)N1CCN(S(=O)(=O)c2cccs2)CC1` (stereo unspecified) here?
The Potency was inconclusive: 7.08 µM [inhibitor, partial curve, poor fit].

For `COc1cccc(C(=O)/C=C/Nc2ccc(S(=O)(=O)Nc3cccc(C(C)=O)c3)cc2)c1`, which Potency is on record?
Its Potency is inconclusive: 10 µM [inhibitor, partial curve, poor fit].

With `C=CC[C@@H]1C=C[C@H](ON=C[C@@H](C)[C@H](OCc2ccccc2)C(C)C)[C@H](CO)O1` as the molecule, how does the Potency read?
Its Potency is inconclusive: 7.5 µM [inhibitor, single point].

With `Cc1ccc(Cl)cc1NC(=O)c1ccc(Cn2cc(Cl)cn2)cc1` as the molecule, how does the Potency read?
The Potency was inconclusive: 10 µM [inhibitor, partial curve].

Which Potency does the source give for `Cc1ccccc1CSc1nccn1-c1ccccc1` here?
The Potency was inconclusive: 3.16 µM [activator, partial curve, poor fit].

For `Cc1c(C(=O)Nc2ccccc2Cl)oc2ccc(S(=O)(=O)N3CCCCC3)cc12`, which Potency is on record?
Its Potency is inconclusive: 6.31 µM [inhibitor, single point].

For `CC(C(=O)N1CCCCC1)n1sc2ccccc2c1=O` (stereo unspecified), which Potency is on record?
Its Potency is inconclusive: 15.8 µM [activator, single point].

With `CN1CCC(=NNc2ccc(S(=O)(=O)N3CCOCC3)cc2[N+](=O)[O-])CC1` as the molecule, how does the Potency read?
Its Potency is inconclusive: 3.66 µM [inhibitor, partial curve].

With `COc1ccc(C)cc1NC(=O)c1cc(S(=O)(=O)N2CCN(c3cccc(C)c3C)CC2)ccc1F` as the molecule, how does the Potency read?
The Potency was inconclusive: 10 µM [activator, single point].

For `COc1ccc(C(=Cc2ccccc2)C(=O)O)cc1`, which Potency is on record?
The Potency was inconclusive: 35.5 µM [activator, single point].

Which Potency does the source give for `O=C1Nc2ccccc2N=C(c2ccccc2)c2ccccc21` here?
The Potency was inconclusive: 35.5 µM [inhibitor, single point].

With `CCOC(=O)c1ccc(N2C(=O)c3n[nH]c(-c4ccco4)c3C2c2cccc(O)c2)cc1` (stereo unspecified) as the molecule, how does the Potency read?
Its Potency is inconclusive: 7.08 µM [inhibitor, partial curve, poor fit].

For `CCOc1ccc(NC(=O)N2CCN3CCCCC3C2)cc1` (stereo unspecified), which Potency is on record?
The Potency was “inactive”.

With `CCn1c(=O)c(C(=O)CN(C)Cc2cccc(OC)c2OC)c(N)n(Cc2ccccc2)c1=O` as the molecule, how does the Potency read?
The Potency was “inactive”.

With `COc1ccc(-n2c(/C=C3\C(=O)Nc4ccccc43)nc3ccccc3c2=O)cc1` as the molecule, how does the Potency read?
Its Potency is inconclusive: 11.6 µM [inhibitor, partial curve, poor fit].

Which Potency does the source give for `CC(C)CC1(C(=O)NCCc2c[nH]c3ccccc23)C=CCN1C(=O)c1ccccc1` (stereo unspecified) here?
Its Potency is “inactive”.

With `O=C(Cn1nc2ccccc2n1)N/N=C/c1cc([N+](=O)[O-])ccc1O` as the molecule, how does the Potency read?
Its Potency is inconclusive: 35.5 µM [inhibitor, single point].

For `Cc1onc(-c2ccccc2)c1C(=O)N1CCN(S(=O)(=O)c2ccc3c(c2)OCCO3)CC1`, which Potency is on record?
Its Potency is inconclusive: 6.51 µM [inhibitor, single point].

Which Potency does the source give for `COC(=O)c1c(-c2ccc3ccccc3c2)csc1NC(=O)Cc1ccc(OC)c(OC)c1` here?
The Potency was inconclusive: 15.8 µM [inhibitor, single point].

With `NC(=O)c1ccsc1NC(=O)CSc1nnc(Nc2ccccc2)s1` as the molecule, how does the Potency read?
The Potency was inconclusive: 32.6 µM [inhibitor, partial curve, poor fit].

With `CC(=NCCC(c1ccccc1)c1ccccc1)c1c(O)n(C)c(=O)n(C)c1=O` as the molecule, how does the Potency read?
Its Potency is inconclusive: 15.8 µM [inhibitor, partial curve, poor fit].

With `O=C(Oc1ccc(-c2ccccc2)cc1)N1CCOCC1` as the molecule, how does the Potency read?
The Potency was “inactive”.

For `CC(C)(C)C(=O)NC(=S)Nc1ccccc1C(=O)Nc1ccccc1`, which Potency is on record?
Its Potency is inconclusive: 0.92 µM [inhibitor, partial curve, poor fit].

Which Potency does the source give for `COc1ccc(O)c(C(=O)c2cnn(-c3ccccn3)c2)c1` here?
Its Potency is inconclusive: 3.55 µM [inhibitor, single point].

Which Potency does the source give for `COc1ccc(-c2nc3c(c4c2C[C@H](c2ccccc2)OC4)CN(C(=O)NCc2ccco2)CC3)c(C)c1` here?
The Potency was “inactive”.

Which Potency does the source give for `Cc1ccc2c(c1)N(CC(=O)N(Cc1ccccn1)Cc1ccco1)C(=O)C(C(C)C)O2` (stereo unspecified) here?
Its Potency is inconclusive: 16.4 µM [inhibitor, single point].

For `Cc1cc(N2C(=O)C(=O)/C(=C(/O)c3ccc(F)cc3)C2c2cccc(Br)c2)no1` (stereo unspecified), which Potency is on record?
Its Potency is “inactive”.

With `CCCn1c(SCC(=O)Nc2cc(Cl)ccc2Cl)n[nH]c1=O` as the molecule, how does the Potency read?
Its Potency is inconclusive: 35.5 µM [inhibitor, single point].
